Measurements published in paper PMC11224471.
Results are given in words; binding and its absence hold for the method and conditions named. In cells and extracts the contact can be indirect. Some entries that bind do so weakly or less than the wild type.

Sequences of proteins named here, by UniProt entry; tags and fusion partners are left off.
UniProt Q9ESE1: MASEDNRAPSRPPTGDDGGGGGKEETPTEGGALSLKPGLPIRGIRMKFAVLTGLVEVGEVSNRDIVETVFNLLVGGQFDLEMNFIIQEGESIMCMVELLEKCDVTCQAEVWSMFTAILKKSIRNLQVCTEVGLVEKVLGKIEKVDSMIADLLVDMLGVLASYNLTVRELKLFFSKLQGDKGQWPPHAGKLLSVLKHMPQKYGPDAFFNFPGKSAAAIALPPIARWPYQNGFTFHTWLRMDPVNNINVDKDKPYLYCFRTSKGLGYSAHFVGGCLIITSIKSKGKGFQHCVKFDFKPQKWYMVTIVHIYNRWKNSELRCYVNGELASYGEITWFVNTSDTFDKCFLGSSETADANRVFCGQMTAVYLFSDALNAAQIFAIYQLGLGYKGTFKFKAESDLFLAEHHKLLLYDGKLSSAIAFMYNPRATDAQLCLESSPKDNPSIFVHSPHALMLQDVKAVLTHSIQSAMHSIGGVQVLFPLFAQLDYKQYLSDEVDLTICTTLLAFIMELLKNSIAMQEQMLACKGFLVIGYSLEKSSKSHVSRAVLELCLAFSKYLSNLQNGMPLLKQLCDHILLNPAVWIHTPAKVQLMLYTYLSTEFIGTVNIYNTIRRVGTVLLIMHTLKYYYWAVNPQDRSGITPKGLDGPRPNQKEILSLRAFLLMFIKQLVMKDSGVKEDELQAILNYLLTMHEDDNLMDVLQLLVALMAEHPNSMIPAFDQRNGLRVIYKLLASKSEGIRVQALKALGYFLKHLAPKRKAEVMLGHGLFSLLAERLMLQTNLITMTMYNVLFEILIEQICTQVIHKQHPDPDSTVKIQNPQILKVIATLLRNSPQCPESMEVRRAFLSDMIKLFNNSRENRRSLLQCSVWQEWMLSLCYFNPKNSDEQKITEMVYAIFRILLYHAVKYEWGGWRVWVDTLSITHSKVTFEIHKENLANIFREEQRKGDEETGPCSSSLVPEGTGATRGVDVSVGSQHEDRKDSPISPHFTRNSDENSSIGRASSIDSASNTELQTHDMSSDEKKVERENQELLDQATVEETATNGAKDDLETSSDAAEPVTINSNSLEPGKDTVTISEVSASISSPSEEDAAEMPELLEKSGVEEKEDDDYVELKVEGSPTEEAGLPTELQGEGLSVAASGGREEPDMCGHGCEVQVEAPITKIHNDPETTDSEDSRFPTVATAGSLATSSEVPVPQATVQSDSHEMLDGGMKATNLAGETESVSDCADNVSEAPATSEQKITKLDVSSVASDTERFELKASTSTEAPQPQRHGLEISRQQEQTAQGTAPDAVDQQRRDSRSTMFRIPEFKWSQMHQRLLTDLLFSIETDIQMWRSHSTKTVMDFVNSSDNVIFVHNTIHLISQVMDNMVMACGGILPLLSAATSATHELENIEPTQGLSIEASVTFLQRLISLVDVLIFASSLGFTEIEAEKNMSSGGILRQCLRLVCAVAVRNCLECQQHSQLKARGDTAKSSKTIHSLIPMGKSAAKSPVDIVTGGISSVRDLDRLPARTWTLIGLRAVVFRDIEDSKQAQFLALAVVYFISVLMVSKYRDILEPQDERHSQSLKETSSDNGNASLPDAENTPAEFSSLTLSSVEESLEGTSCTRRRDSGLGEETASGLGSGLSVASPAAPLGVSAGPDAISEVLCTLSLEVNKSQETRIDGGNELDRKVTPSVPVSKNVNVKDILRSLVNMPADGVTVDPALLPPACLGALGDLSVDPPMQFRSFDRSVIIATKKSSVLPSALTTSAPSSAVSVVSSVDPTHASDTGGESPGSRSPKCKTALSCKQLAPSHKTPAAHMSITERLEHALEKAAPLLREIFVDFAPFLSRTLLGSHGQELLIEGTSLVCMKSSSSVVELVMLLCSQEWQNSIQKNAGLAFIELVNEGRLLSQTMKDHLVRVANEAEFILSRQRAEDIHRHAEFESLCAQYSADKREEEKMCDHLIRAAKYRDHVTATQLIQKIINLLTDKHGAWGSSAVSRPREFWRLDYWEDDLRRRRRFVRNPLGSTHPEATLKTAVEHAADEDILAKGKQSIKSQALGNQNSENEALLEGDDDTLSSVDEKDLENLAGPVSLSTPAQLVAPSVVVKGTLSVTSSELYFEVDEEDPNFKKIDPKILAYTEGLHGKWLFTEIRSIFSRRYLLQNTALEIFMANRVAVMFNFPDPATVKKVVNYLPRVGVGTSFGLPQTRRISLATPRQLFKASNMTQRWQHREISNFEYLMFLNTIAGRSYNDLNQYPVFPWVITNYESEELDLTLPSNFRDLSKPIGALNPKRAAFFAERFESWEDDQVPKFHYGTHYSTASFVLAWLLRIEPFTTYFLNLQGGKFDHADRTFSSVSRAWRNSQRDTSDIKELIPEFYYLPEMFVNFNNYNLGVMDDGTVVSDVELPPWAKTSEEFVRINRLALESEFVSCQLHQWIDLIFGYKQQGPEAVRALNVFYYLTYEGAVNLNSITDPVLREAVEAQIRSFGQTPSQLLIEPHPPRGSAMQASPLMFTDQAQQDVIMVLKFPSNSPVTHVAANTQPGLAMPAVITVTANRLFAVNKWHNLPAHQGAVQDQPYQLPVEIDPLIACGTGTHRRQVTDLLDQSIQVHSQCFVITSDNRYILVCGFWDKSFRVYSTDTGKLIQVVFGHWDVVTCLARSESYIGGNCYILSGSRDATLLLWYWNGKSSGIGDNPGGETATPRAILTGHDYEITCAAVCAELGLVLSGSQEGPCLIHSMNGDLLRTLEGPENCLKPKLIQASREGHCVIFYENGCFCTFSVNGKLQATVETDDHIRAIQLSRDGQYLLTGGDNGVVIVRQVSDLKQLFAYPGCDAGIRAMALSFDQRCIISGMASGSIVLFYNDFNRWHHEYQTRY

Target: T1, TGFβ receptor II subunit (TGFβRII), murine (mouse (endogenous in splenic B cells)) (UniProt Q62312)
T1 sequence: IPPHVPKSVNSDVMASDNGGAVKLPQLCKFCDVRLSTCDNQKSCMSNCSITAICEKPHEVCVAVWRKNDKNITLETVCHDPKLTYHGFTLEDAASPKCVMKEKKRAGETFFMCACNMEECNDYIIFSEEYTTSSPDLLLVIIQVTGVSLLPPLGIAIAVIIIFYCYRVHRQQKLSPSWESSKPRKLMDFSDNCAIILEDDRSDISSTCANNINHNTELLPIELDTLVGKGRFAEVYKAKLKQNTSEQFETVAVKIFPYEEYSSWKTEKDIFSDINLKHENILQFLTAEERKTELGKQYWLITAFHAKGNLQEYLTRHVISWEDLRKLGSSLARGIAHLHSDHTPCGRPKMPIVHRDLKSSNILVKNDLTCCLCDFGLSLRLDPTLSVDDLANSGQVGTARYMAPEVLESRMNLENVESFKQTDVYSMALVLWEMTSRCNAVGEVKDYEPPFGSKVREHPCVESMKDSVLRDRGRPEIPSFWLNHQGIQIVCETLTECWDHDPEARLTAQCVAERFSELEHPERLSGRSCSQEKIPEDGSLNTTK
Test: co-IP; endogenous proteins from B cells of Lrba+/+ mice; immunoprecipitation with anti-Lrba or anti-TGFβRII, detection by immunoblot; Lrba-/- B cells as negative control

binding: binds weakly
Substance: Lipopolysaccharide (LPS)-responsive beige-like anchor (Lrba), murine (from UniProt Q9ESE1 1-2856)
